Measured values from patent US5436221A (Fuji Photo Film Co., Ltd., priority 1991, dated 1995).
HELM strings list residues between dots; [ac] is acetyl, [am] amide, other brackets name non-standard units. * marks the point of attachment. Mts = Cc1cc(C)c(S(=O)(=O)*)c(C)c1; Boc = CC(C)(C)OC(=O)*; OBn = c1ccc(CO*)cc1; Bn = c1ccc(C*)cc1

Assay: general procedure: solution-phase peptide synthesis; DCC/HOBt; CDI
[1] = coupling step, monosalt of acetic acid, hydrochloride
[2] = late stage modification step, acetic acid monosalt
[3] = late stage modification step, monosalt of acetic acid, hydrochloride

Boc-Asp(OBn)-Arg(Z2)-Leu-Asp(OBn)-Ser(Bn)-OBn
step yield [1]: 65%

Boc-R(Mts)LD(OBn)S(Bn)-OBn
step yield [1]: 48%

PEPTIDE1{R.L.D.S}$$$$V2.0
step yield [2]: 82%

PEPTIDE1{[GlcA-EG2-Suc].R.L.D.S}$$$$V2.0
step yield [3]: 80%

PEPTIDE1{[SulfoOBu].R.L.D.S}$$$$V2.0 [65]
step yield [3]: 59%

PEPTIDE1{[dR].L.D.S}$$$$V2.0
step yield [2]: 84%

t--Boc--Arg(Z2)--Leu--Asp(OBn)--Ser(Bn)--OBn
step yield [1]: 38%
